Measured values published in the supplement of paper PMC10735217.
Where a name gives a salt, the structure may show the parent alone. This is one part of the list. This data set is noisy: repeats of one test often differ as much as different tests do.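 Human kidney-derived cells stably carry a construct in which eight TEAD-binding elements drive luciferase, measured by luminescence in a drug-repurposing library screen. A hit is any compound whose signal exceeds the plate mean by more than five robust Z scores.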

Test system: HEK293A TEAD-LUC reporter
Test: TEAD-luciferase reporter activity (YAP activation), robust Z score vs plate; higher = stronger YAP/TEAD activation
Conditions: 24 h

Row | SMILES | TEAD-luciferase reporter activity (compound concentration: 200 nM) | TEAD-luciferase reporter activity (compound concentration: 2 uM) | TEAD-luciferase reporter activity (compound concentration: 10 uM)
1 | CC1CCC(C(=O)CCC(=O)O)CC1 (stereo not drawn) | inactive: -1.07 | inactive: -0.941 | inactive: -0.717
2 | CC[C@H](C)CCN(C(=O)CNC(=O)Nc1cccc(CC(=O)O)c1)c1ccccc1OCC(=O)N(C)c1ccccc1 | inactive: -1.55 | inactive: -0.288 | inactive: -0.00538
3 | CN(C)c1ccc2c(c1)Sc1cc(N(C)C)ccc1N2 [Leuco methylthioninium salt] | inactive: -1.02 | inactive: 1.51 | inactive: 3.48
4 | CCc1c(C)[nH]c2c1C(=O)C(CN1CCOCC1)CC2 (stereo not drawn) [molindone] |  | inactive: -0.467 | 
5 | CCc1c(C)[nH]c2c1C(=O)C(CN1CCOCC1)CC2 (stereo not drawn) [Moban] | inactive: 0.299 |  | inactive: 0.518
6 | Cn1/c(=N\C#N)n(-c2ccc(C(C)(C)C#N)nc2)c2c3cc(-c4cnc(N)c(C(F)(F)F)c4)ccc3ncc21 [Panulisib] | inactive: -2.42 | inactive: -3.26 | inactive: -2.74
7 | Nc1nc(Nc2ccccc2)nc2c1ncn2[C@@H]1O[C@H](CO)[C@@H](O)[C@H]1O | inactive: -0.478 | inactive: -0.631 | inactive: -0.0499
8 | O=C(O)c1ccc(NC(=O)[C@H](Cc2ccc(O)cc2)NC(=O)c2ccccc2)cc1 [bentiromide] | inactive: -0.374 | inactive: -0.276 | inactive: -0.859
9 | NCCCCC(N)C(=O)OC1Cc2c(O)cc(O)cc2OC1c1ccc(O)c(O)c1 (stereo not drawn) | inactive: -1.69 | inactive: -0.911 | inactive: 2.12
10 | Cc1ccc2oc(-c3cc(Br)ccc3O)cc(=O)c2c1 | inactive: 1.43 | inactive: 0.0699 | inactive: 2.77
11 | O=C(NCc1ccccc1)C1CCN(Cc2c(-c3ccccc3)nc3ccccn23)CC1 | inactive: 0.216 | inactive: -0.72 | inactive: 1.08
12 | O=C(O)c1ccc(CCCc2c(CCNS(=O)(=O)Cc3ccc(Cl)c(Cl)c3)n(C(c3ccccc3)c3ccccc3)c3ccc(Cl)cc23)cc1 | inactive: 0.0458 | inactive: -0.681 | inactive: -1.16
13 | C=C1/C(=C\C=C2/CCC[C@]3(C)[C@@H]([C@H](C)CCCC(C)(C)O)CC[C@@H]23)C[C@@H](O)C[C@@H]1O | inactive: 1.07 | inactive: 2 | inactive: 3.31
14 | CNCC1CC2c3ccccc3Cc3ccc(F)cc3C2O1 (stereo not drawn) | inactive: -0.541 | inactive: -1.05 | inactive: -1.04
15 | C[n+]1ccc(C(=O)NCc2ccccc2)cc1 [Enisamium iodide] | inactive: -2.63 | inactive: 1.46 | inactive: -0.333
16 | O=S(=O)(Nc1cccc(OCc2ccc3ccccc3n2)c1)C(F)(F)F [Ritolukast] | inactive: -0.0414 | inactive: 3.95 | inactive: 3.7
17 | CC(O)COC[C@H]1O[C@@H]2O[C@H]3[C@H](O)[C@@H](O)[C@@H](O[C@H]4[C@H](O)[C@@H](O)[C@@H](O[C@H]5[C@H](O)[C@@H](O)[C@@H](O[C@H]6[C@H](O)[C@@H](O)[C@@H](O[C@H]7[C@H](O)[C@@H](O)[C@@H](O[C@H]8[C@H](O)[C@@H](O)[C@@H](O[C@H]1[C@H](O)[C@H]2O)O[C@@H]8COCC(C)O)O[C@@H]7COCC(C)O)O[C@@H]6COCC(C)O)O[C@@H]5COCC(C)O)O[C@@H]4COCC(C)O)O[C@@H]3COCC(C)O (stereo partly drawn) [Hydroxypropyl-beta-cyclodextrin] | inactive: 1.51 | inactive: -1.7 | inactive: 0.88
18 | CO[C@H]1O[C@H](COS(=O)(=O)O)[C@@H](O[C@@H]2O[C@@H](C(=O)O)[C@@H](O[C@H]3O[C@H](COS(=O)(=O)O)[C@@H](O[C@@H]4O[C@H](C(=O)O)[C@@H](O[C@H]5O[C@H](COS(=O)(=O)O)[C@@H](O)[C@H](O)[C@H]5NS(=O)(=O)O)[C@H](O)[C@H]4O)[C@H](OS(=O)(=O)O)[C@H]3NS(=O)(=O)O)[C@H](O)[C@H]2OS(=O)(=O)O)[C@H](O)[C@H]1NS(=O)(=O)O [Fondaparinux (sodium)] |  | inactive: -0.696 | inactive: -0.543
19 | c1ccc2c(c1)CN1CCCC1=N2 | inactive: 1.57 |  | inactive: -0.49
20 | c1ccc2c(c1)CN1CCCC1=N2 [Deoxypeganine] |  | inactive: 0.0653 | 
21 | CC(=O)N(CC(C)C(=O)O)c1c(I)cc(I)c(N)c1I (stereo not drawn) | inactive: 1.25 | inactive: 0.463 | inactive: 1.71
22 | CC(C)NC(C)C(O)(c1ccccc1)c1nc2ccccc2[nH]1 (stereo not drawn) | inactive: -0.864 | inactive: -0.582 | inactive: 0.134
23 | O=C(c1ccc(Cl)cc1)N1CC2(CCN(C3CCCCC3)C2)Cc2ccccc21 (stereo not drawn) | inactive: -0.754 |  | inactive: 1.52
24 | C=C1c2cccc(O)c2C(=O)C2=C(O)[C@]3(O)C(=O)C(C(N)=O)=C(O)[C@@H](N(C)C)[C@@H]3[C@@H](O)[C@H]12 | inactive: 3.77 | inactive: -0.25 | inactive: -0.982
25 | C[C@H](N)C(=O)N[C@H]1CCN(c2nc3c(cc2F)c(=O)c(C(=O)O)cn3C2CC2)C1 | inactive: -1.93 | inactive: 0.625 | inactive: 0.0944
26 | O=S(=O)([O-])CCCS(=O)(=O)[O-] [Eprodisate sodium] | inactive: -1.15 | inactive: -2.49 | inactive: 0.00723

Row | SMILES | TEAD-luciferase reporter activity (compound concentration: 200 nM) | TEAD-luciferase reporter activity (compound concentration: 2 uM) | TEAD-luciferase reporter activity (compound concentration: 10 uM)
27 | CCCn1c(=O)c2[nH]c(C34CC5CC(CC3C5)C4)nc2n(CCC)c1=O [Rolofylline] | inactive: 0.531 | inactive: -0.369 | inactive: -0.212
28 | CCOC(=O)Nc1ccc(NCc2ccc(F)cc2)nc1N [flupirtine] | inactive: -1.33 | inactive: -0.335 | inactive: -0.143
29 | COC(=O)CCNCCC1COc2ccccc2C1 (stereo not drawn) | inactive: -1.07 | inactive: -1.15 | inactive: 1
30 | C[C@H](NS(=O)(=O)c1cnc2n1[C@](C)(Cc1ccc(OC(F)(F)F)cc1)C(=O)N2c1cc(Cl)cc(Cl)c1)C(N)=O | inactive: -1.67 | inactive: -0.84 | inactive: -0.966
31 | CCC(C)(C)/N=C(\NC#N)Nc1cccnc1 |  | inactive: 1.26 | 
32 | C=CCSS(=O)CC=C (stereo not drawn) [Allicin] |  | inactive: 0.069 | inactive: 1.37
33 | CCN(CC)CCCNc1nccc2c(C)c3[nH]c4ccc(O)cc4c3c(C)c12 | inactive: -1.68 | inactive: 0.768 | inactive: 4.52
34 | Cc1ccc(NC(=O)NCCCCN2CCN(c3csc4cc(C(F)(F)F)ccc34)CC2)cc1 | inactive: -1.14 | inactive: -1.98 | inactive: 0.911
35 | Cc1ccn(-c2ccc(C(=O)N3Cc4cccn4Cc4ccccc43)c(Cl)c2)n1 | inactive: -0.817 | inactive: -0.338 | inactive: 0.678
36 | N=C(N)NCCCCNC(=N)N [Arcarine] |  | inactive: 0.0644 | 
37 | N=C(N)NCCCCNC(=N)N [Arcaine sulfate] | inactive: -0.41 |  | inactive: 0.0262
38 | O=C(N[C@@H](c1ccccc1)[C@@H]1CCCCN1)c1cccc(C(F)(F)F)c1Cl | inactive: 0.342 | inactive: -1.54 | inactive: 2.73
39 | COC(=O)[C@H](C)NP(=O)(OC[C@H]1O[C@@H](n2cc(/C=C/Br)c(=O)[nH]c2=O)C[C@@H]1O)Oc1ccccc1 (stereo partly drawn) [Thymectacin] | inactive: -1.66 | inactive: -0.627 | inactive: 1.5
40 | Nc1ncnc2c1C(=O)N(c1ccc([C@H]3CC[C@H](CC(=O)O)CC3)cc1)CCO2 | inactive: 1.1 | inactive: -0.346 | inactive: -0.426
41 | CC[C@@H](C)[C@@H](CO[C@@H](Cc1ccccc1)C(=O)N[C@@H](CCS(C)(=O)=O)C(=O)OC(C)C)NC[C@@H](N)CS | inactive: -0.798 | inactive: -0.304 | inactive: 1.68
42 | CC(C)(C)NC[C@H](O)COc1cccc2c1CCCC2=O [Levobunolol?HCl] | inactive: -0.258 |  | inactive: -0.755
43 | CC(C)(C)NC[C@H](O)COc1cccc2c1CCCC2=O [levobunolol] |  | inactive: -1.57 | 
44 | COc1cc2oc(=O)c(C)c(C)c2cc1OCCCN1CCN(c2ccccc2OC)CC1 | inactive: -1.77 | inactive: -0.612 | inactive: -0.433
45 | CCCCCCCCCCCCCCCCCC(N)=O | inactive: -1.42 | inactive: 0.62 | inactive: 1.84
46 | COc1cn(-c2ccc(-n3cccn3)cc2F)nc(-c2ccnn2-c2ccccc2)c1=O | inactive: -2.05 | inactive: -0.738 | inactive: 0.423
47 | CC(C)CCCC(C)CCCC(C)CCCCC(C)CCCC(C)CCCC(C)C (stereo not drawn) | inactive: 0.707 | inactive: 0.648 | inactive: -0.433
48 | CCCOC1CCC(N(C(=O)Nc2ncc(SCC(=O)O)s2)C2CCCCC2)CC1 (stereo not drawn) | inactive: -1.04 | inactive: -0.744 | inactive: -0.713
49 | COc1ccc2c(c1OC)C(C1c3c(cc4c(c3OC)OCO4)CCN1C)OC2=O (stereo not drawn) | inactive: -1.46 | inactive: 0.328 | inactive: 0.987
50 | CC(C)(C)NCc1cc(Nc2ccnc3cc(Cl)ccc23)c2c(c1O)CCCC2 [Naphthoquine phosphate] | inactive: -0.381 |  | inactive: 1.44
51 | CCCCCCCCCCCC[N+](C)(C)C | inactive: -1.37 | inactive: -1.98 | inactive: -0.851
52 | Cc1cc(-n2nc3ccc(Cl)cc3n2)c(O)c(C(C)(C)C)c1 | inactive: -0.378 | inactive: 2.08 | inactive: -0.429

Reprinted, entries 17–18
Row | SMILES | TEAD-luciferase reporter activity (compound concentration: 200 nM) | TEAD-luciferase reporter activity (compound concentration: 2 uM) | TEAD-luciferase reporter activity (compound concentration: 10 uM)
17 | CC(O)COC[C@H]1O[C@@H]2O[C@H]3[C@H](O)[C@@H](O)[C@@H](O[C@H]4[C@H](O)[C@@H](O)[C@@H](O[C@H]5[C@H](O)[C@@H](O)[C@@H](O[C@H]6[C@H](O)[C@@H](O)[C@@H](O[C@H]7[C@H](O)[C@@H](O)[C@@H](O[C@H]8[C@H](O)[C@@H](O)[C@@H](O[C@H]1[C@H](O)[C@H]2O)O[C@@H]8COCC(C)O)O[C@@H]7COCC(C)O)O[C@@H]6COCC(C)O)O[C@@H]5COCC(C)O)O[C@@H]4COCC(C)O)O[C@@H]3COCC(C)O (stereo partly drawn) [Hydroxypropyl-beta-cyclodextrin] | inactive: 1.51 | inactive: -1.7 | inactive: 0.88
18 | CO[C@H]1O[C@H](COS(=O)(=O)O)[C@@H](O[C@@H]2O[C@@H](C(=O)O)[C@@H](O[C@H]3O[C@H](COS(=O)(=O)O)[C@@H](O[C@@H]4O[C@H](C(=O)O)[C@@H](O[C@H]5O[C@H](COS(=O)(=O)O)[C@@H](O)[C@H](O)[C@H]5NS(=O)(=O)O)[C@H](O)[C@H]4O)[C@H](OS(=O)(=O)O)[C@H]3NS(=O)(=O)O)[C@H](O)[C@H]2OS(=O)(=O)O)[C@H](O)[C@H]1NS(=O)(=O)O [Fondaparinux (sodium)] |  | inactive: -0.696 | inactive: -0.543
